Our source for the binding values is publication PMC4642318.

Chains of the proteins cited; added tags and fusions are not shown.
UniProt Q15797: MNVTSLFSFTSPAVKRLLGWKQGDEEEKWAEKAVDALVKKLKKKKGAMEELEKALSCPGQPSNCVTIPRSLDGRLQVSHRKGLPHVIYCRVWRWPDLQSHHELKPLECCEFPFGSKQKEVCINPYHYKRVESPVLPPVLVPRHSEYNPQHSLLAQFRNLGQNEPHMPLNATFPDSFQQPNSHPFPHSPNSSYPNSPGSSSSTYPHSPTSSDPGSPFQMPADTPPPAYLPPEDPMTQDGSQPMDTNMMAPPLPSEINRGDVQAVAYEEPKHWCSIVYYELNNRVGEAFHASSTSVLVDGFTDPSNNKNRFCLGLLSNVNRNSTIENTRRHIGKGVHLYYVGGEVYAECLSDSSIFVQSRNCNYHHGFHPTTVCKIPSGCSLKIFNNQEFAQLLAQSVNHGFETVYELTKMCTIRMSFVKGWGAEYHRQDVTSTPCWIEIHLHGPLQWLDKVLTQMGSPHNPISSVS
UniProt P97454: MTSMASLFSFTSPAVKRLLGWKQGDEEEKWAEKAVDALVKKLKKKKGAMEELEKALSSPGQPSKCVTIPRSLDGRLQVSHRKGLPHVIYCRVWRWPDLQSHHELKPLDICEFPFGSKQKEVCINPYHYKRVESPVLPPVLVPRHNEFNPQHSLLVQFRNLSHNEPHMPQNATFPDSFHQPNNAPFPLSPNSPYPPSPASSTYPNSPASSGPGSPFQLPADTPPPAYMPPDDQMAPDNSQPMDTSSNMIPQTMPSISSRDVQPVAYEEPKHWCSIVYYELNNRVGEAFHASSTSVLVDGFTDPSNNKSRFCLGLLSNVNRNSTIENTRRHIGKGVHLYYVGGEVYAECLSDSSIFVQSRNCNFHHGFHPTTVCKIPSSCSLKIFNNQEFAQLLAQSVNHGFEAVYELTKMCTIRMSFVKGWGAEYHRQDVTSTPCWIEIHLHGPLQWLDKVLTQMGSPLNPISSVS
UniProt Q13485: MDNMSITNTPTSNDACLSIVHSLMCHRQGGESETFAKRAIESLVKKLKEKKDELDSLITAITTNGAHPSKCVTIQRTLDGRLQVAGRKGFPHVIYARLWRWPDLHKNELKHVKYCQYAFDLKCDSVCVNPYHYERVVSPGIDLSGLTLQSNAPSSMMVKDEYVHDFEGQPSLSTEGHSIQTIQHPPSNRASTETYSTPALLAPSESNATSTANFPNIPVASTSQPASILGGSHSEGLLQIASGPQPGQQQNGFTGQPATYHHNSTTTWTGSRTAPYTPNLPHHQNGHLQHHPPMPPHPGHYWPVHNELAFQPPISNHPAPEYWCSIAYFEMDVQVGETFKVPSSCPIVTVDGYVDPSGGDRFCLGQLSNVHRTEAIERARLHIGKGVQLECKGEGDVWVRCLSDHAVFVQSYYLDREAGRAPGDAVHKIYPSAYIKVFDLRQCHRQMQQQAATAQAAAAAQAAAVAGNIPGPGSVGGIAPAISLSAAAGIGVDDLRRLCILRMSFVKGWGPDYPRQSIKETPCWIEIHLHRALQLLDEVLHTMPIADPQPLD
UniProt O54835: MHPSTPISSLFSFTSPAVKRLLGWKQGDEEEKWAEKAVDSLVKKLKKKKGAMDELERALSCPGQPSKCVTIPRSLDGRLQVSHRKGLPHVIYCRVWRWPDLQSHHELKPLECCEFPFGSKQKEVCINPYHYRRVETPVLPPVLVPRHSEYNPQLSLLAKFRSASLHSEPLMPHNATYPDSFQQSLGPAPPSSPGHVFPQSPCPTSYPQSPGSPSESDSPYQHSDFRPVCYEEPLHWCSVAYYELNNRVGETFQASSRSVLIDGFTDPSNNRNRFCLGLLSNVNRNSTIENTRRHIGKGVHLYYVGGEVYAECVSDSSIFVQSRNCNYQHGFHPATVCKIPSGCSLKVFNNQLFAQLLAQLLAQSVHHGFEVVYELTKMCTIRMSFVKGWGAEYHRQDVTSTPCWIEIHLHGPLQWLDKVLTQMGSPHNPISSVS
UniProt O70571: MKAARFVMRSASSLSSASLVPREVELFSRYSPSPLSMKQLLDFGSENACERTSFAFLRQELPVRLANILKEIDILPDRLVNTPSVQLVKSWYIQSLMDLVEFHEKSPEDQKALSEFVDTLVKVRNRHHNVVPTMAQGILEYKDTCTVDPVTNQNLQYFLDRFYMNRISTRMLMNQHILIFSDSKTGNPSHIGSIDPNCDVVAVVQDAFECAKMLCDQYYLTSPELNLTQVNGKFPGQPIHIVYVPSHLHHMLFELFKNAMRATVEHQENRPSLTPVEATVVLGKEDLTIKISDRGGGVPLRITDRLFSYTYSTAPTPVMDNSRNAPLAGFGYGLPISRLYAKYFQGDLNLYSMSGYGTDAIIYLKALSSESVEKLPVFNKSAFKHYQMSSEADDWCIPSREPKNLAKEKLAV

These are yes or no findings as the source states them, for the method shown. Binding seen in cells or lysates may run through a third protein. Some binding calls cover weakened binding; strength is not graded here.

Experiment in all cases: pull-down; GST-SMADs immobilised on glutathione-Sepharose 4B beads incubated with 35S-labelled in vitro translated PDK4; 25 mM HEPES pH 7.6, 1 mM DTT, 100 mM NaCl, 0.2 mM EDTA, 1.5% BSA, 20% glycerol, 4 °C, 12 h; only the target purified
Test [1] deals with GST-tagged human SMAD1 (human) (UniProt Q15797).
Test [2] has as its target GST-tagged mouse SMAD5 (mouse) (UniProt P97454).
Test [3] concerns the target GST-tagged human SMAD4 (human) (UniProt Q13485).
Test [4] addresses GST-tagged rat SMAD8 (rat) (UniProt O54835).

With “[35S]-methionine-labelled mouse PDK4 (from UniProt O70571 1-412) (enzyme)”, the binding result in test [1] is reported as “binds”; in test [2], “binds”; in test [3] it was “no binding”; in test [4], “binds”.
